This is a selection; strong and weak results do not stand in their true shares. Calls are pooled over several reports, among them a noisy single-well screen. The list shows a part of the results. Some of the results follow.
Columns and labels:
Details in all cases: stereoisomer not certain
OR9G4 = test system: T1, OR9G4
T1 sequence (whole entry): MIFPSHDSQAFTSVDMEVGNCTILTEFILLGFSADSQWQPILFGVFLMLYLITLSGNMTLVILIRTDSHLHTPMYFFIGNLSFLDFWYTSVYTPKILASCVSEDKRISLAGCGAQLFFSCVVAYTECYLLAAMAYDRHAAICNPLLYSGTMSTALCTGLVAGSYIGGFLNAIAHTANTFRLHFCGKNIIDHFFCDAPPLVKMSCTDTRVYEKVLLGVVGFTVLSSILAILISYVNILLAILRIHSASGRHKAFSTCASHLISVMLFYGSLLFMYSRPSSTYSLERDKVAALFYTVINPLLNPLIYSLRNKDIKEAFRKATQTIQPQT
Procedure, shortened: (§1)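 Whether a receptor–molecule pair is responsive (active) rests on the original authors' judgment that its measured signal was statistically different from baseline. Pairs without that judgment are non-responsive (inactive). Sources used varied assay methods, commonly transient luciferase assays in mammalian cell lines.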

By UniProt entry, the sequences of proteins in these tests, tags left out. Where a name states a change or a piece, a line headed by the entry shows the natural chain unless it says otherwise.
UniProt P23270: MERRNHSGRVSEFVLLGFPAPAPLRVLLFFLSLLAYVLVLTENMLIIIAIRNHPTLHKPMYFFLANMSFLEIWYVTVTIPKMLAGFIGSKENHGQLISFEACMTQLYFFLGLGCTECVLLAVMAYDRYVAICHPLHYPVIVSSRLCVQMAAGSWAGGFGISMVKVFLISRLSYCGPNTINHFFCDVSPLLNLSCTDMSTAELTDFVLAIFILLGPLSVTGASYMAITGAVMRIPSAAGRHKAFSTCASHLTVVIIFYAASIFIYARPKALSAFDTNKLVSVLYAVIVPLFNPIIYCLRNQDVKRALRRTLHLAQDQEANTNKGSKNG

OR9G9 [1] = test system: T2, OR9G9
T2 sequence (whole entry): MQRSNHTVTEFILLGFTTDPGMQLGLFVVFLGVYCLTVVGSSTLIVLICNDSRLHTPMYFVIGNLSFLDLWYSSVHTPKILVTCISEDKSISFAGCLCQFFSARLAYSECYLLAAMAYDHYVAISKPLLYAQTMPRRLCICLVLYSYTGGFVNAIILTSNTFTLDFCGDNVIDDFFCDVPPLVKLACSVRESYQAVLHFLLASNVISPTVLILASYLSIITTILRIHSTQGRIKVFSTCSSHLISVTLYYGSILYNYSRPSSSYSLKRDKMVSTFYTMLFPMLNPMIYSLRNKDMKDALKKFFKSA
Procedure, shortened: as §1

OR9G9 [2] = test system: T3, OR9G9; remark: listed apart in the source
T3 sequence (whole entry): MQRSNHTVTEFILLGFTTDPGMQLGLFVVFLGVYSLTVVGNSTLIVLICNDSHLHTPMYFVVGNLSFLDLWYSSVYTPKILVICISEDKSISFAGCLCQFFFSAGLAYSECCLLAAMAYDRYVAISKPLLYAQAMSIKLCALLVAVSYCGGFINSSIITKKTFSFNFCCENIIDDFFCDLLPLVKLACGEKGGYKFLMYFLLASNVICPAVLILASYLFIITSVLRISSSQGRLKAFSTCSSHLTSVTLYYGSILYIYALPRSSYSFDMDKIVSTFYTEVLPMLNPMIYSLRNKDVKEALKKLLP
Procedure, shortened: as §1

OR9I1 (Homo sapiens) = biological target: T4, OR9I1 (Homo sapiens) (UniProt Q8NGQ6)
T4 sequence (whole entry): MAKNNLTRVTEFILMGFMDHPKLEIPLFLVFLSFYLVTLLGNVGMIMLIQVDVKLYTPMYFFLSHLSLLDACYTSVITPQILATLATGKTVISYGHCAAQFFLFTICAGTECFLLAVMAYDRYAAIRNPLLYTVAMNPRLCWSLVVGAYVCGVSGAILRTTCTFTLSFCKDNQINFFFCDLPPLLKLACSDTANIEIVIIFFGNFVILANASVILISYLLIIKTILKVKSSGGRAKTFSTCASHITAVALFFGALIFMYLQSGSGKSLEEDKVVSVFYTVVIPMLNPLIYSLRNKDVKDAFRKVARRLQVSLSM
Procedure, shortened: as §1

OR9K2 (Homo sapiens) = biological target: T5, OR9K2 (Homo sapiens) (UniProt Q8NGE7)
T5 sequence (whole entry): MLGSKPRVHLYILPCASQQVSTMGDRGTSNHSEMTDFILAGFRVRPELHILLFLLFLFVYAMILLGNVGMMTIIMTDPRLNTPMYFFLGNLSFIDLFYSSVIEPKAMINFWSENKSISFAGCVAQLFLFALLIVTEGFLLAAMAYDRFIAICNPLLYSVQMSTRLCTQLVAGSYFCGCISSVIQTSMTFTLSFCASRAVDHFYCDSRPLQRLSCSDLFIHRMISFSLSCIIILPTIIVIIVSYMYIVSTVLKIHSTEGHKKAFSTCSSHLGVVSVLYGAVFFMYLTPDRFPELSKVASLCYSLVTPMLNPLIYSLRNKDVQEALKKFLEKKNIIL
Procedure, shortened: as §1

OR9Q1 = test system: T6, OR9Q1
T6 sequence (whole entry): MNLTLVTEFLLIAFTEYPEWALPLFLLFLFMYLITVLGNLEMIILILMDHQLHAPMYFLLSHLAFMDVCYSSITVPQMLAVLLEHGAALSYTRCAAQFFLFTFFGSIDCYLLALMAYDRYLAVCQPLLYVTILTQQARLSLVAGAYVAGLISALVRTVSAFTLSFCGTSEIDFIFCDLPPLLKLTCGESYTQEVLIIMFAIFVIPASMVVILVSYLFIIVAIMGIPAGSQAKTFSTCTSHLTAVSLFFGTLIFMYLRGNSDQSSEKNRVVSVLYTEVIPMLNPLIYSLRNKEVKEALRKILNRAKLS
Procedure, shortened: as §1

OR9Q2 (Homo sapiens) = biological target: T7, OR9Q2 (Homo sapiens) (UniProt Q8NGE9)
T7 sequence (whole entry): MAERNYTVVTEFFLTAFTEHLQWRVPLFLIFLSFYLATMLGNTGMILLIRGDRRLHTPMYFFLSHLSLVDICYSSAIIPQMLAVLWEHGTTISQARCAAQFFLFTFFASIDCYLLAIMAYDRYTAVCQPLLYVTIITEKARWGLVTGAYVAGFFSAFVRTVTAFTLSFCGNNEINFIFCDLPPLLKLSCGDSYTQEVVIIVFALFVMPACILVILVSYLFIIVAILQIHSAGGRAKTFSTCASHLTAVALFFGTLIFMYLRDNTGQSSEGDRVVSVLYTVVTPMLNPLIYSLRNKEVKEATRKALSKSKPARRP
Procedure, shortened: as §1

OR9Q2 = test system: T8, OR9Q2
T8 sequence (whole entry): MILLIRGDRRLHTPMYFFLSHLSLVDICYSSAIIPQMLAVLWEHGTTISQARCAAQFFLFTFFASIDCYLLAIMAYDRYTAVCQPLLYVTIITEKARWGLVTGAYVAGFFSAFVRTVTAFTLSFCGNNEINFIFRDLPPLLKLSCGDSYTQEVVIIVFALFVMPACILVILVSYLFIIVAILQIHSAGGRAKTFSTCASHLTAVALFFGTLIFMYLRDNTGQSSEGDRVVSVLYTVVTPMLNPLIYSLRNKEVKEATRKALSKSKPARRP
Procedure, shortened: as §1

ORM2B = test system: T9, ORM2B
T9 sequence (whole entry): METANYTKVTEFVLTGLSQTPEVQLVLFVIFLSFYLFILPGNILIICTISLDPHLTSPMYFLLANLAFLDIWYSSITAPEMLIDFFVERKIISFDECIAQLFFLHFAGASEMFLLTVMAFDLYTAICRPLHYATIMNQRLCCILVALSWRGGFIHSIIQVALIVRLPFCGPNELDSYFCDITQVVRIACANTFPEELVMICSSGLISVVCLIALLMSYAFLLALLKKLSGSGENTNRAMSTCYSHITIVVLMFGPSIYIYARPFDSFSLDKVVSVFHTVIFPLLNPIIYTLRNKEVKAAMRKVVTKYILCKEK
Procedure, shortened: as §1

[3] = biological target: Olr226 (Rattus norvegicus) (UniProt P23270)
Procedure, shortened: as §1

Or10j5 (Mus musculus) = biological target: T10, Or10j5 (Mus musculus) (UniProt Q62007)
T10 sequence (whole entry): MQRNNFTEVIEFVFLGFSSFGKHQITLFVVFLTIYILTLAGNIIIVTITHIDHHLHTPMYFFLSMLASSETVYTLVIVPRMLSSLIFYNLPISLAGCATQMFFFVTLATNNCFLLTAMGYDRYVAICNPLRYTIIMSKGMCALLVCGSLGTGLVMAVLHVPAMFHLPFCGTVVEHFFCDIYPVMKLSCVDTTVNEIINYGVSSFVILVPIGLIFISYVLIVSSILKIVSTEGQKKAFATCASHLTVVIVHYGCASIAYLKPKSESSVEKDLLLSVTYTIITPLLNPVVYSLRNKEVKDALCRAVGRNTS
Procedure, shortened: as §1

Or1m1 (Mus musculus) = biological target: T11, Or1m1 (Mus musculus) (UniProt Q8VFM9)
T11 sequence (whole entry): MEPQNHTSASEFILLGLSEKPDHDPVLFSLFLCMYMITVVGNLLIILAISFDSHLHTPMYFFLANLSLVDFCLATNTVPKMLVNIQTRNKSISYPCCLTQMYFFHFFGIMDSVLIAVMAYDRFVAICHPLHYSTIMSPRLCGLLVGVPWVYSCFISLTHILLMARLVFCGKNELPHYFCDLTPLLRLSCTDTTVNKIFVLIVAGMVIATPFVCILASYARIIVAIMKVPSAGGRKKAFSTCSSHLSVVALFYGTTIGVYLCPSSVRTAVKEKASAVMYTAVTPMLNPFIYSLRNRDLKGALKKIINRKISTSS
Procedure, shortened: as §1

Or2c1 (Mus musculus) = biological target: T12, Or2c1 (Mus musculus) (UniProt P23275)
T12 sequence (whole entry): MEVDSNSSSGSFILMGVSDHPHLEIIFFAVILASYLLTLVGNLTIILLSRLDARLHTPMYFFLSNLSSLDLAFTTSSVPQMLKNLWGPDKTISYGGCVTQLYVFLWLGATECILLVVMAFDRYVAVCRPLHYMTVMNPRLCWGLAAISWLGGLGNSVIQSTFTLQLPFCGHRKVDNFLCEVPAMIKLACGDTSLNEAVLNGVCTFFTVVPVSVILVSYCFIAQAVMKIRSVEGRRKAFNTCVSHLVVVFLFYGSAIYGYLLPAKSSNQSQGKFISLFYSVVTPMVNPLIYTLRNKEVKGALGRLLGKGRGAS
Procedure, shortened: as §1

Or5ar1 (Mus musculus) = biological target: T13, Or5ar1 (Mus musculus) (UniProt Q8VGS3)
T13 sequence (whole entry): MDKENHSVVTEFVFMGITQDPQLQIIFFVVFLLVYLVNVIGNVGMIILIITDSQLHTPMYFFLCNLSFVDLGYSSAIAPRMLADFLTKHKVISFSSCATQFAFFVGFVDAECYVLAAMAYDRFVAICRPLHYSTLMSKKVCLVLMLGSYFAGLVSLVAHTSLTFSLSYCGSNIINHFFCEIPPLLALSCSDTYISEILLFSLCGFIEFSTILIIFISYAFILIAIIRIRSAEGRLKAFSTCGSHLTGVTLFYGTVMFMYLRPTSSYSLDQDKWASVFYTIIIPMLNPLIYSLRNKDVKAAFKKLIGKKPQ
Procedure, shortened: as §1
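Note: active if original authors judged signal statistically different from baseline.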

Row | SMILES | odorant receptor agonist call (OR9G4) | odorant receptor agonist call (OR9G9 [1]) | odorant receptor agonist call (OR9G9 [2]) | odorant receptor agonist call (OR9I1 (Homo sapiens)) | odorant receptor agonist call (OR9K2 (Homo sapiens)) | odorant receptor agonist call (OR9Q1) | odorant receptor agonist call (OR9Q2 (Homo sapiens)) | odorant receptor agonist call (OR9Q2) | odorant receptor agonist call (ORM2B) | odorant receptor agonist call [3] | odorant receptor agonist call (Or10j5 (Mus musculus)) | odorant receptor agonist call (Or1m1 (Mus musculus)) | odorant receptor agonist call (Or2c1 (Mus musculus)) | odorant receptor agonist call (Or5ar1 (Mus musculus))
1 | CCCCCCCC=O | inactive | inactive | inactive | inactive | inactive | inactive | inactive | inactive | inactive | active | active | inactive | inactive | inactive
2 | COc1cc(C)ccc1O | inactive | inactive | inactive | inactive | inactive | inactive | inactive | inactive | inactive | – | – | – | – | –
3 | c1ccc(Oc2ccccc2)cc1 | inactive | inactive | inactive | inactive | inactive | inactive | inactive | inactive | inactive | – | – | – | – | –
4 | CC(=O)C(C)=O | inactive | inactive | inactive | inactive | inactive | inactive | inactive | inactive | inactive | inactive | – | inactive | – | inactive
5 | CCCCCCCCCC=O | inactive | inactive | inactive | inactive | inactive | inactive | inactive | inactive | inactive | – | inactive | inactive | inactive | inactive
6 | CCCCCCOC(=O)CCC | inactive | inactive | inactive | inactive | inactive | inactive | inactive | inactive | inactive | – | – | – | – | –
